Consider 1 molecule from patent US20050053993A1, “Uses of an endothelial cell receptor” (priority 2002, published 2005).

Chains of the proteins cited; added tags and fusions are not shown. Residues count along the entry.
UniProt P11021, residues 19-654: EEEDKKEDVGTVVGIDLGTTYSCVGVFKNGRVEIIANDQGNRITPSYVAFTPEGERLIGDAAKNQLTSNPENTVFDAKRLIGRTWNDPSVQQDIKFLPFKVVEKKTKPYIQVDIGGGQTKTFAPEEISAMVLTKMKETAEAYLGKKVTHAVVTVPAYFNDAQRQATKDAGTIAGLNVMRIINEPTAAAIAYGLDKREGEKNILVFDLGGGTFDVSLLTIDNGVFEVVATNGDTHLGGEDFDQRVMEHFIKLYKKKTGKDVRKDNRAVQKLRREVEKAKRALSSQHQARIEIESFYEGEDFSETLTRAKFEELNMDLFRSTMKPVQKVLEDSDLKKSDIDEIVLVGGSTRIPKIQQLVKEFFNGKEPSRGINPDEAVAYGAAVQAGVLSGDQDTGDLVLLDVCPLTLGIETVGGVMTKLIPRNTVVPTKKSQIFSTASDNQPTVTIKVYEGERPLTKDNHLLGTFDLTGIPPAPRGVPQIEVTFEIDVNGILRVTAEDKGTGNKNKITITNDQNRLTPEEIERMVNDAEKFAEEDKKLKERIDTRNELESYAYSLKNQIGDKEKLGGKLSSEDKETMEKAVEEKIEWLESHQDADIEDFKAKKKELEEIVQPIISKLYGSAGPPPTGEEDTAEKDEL

This assay addresses GRP78 on the surface of human cells (EAHY, HMVEC, HT1080) (human) (UniProt P11021). The experiment in a line: S-tag-K5 pull-down of biotinylated EAHY surface proteins.

Results are given in words; binding and its absence hold for the method and conditions named. In cells and extracts the contact can be indirect. Some binding calls cover weakened binding; strength is not graded here.

B1: N-term-S-tag-Kringle 5 (ligand, human, UniProt P00747 481-560, looked up, not shown: small tags and cut ends)
chain: CMFGNGKGYRGKRATTVTGTPCQDWAAQEPHRHSIFTPETNPRAGLEKNYCRNPDGDVGGPWCYTTNPRKLYDYCDVPQC
On to B1, for which the binding result is on record as “binds”.
